The other results are listed elsewhere or left out. Most values lie at the level of the controls, where differences are scatter.
compound: CN[C@@H]1C[C@H]2O[C@@](C)([C@@H]1OC)n1c3ccccc3c3c4c(c5c6ccccc6n2c5c31)C(=O)NC4 [staurosporine]; assay: log2 fold change of tryptic peptide abundance, ligand vs vehicle (limited proteolysis) (log2 ratio); higher = more trypsin-susceptible (destabilized); conditions: ligand concentration: 20 uM; sample: mouse liver crude lysate; replicate design: treated separately

Protein sequences, listed by entry. Tags and fused reporters are not part of them. Lines headed by an entry give the natural chain unless they say otherwise; changes in a name come on top.
UniProt Q3UVG3: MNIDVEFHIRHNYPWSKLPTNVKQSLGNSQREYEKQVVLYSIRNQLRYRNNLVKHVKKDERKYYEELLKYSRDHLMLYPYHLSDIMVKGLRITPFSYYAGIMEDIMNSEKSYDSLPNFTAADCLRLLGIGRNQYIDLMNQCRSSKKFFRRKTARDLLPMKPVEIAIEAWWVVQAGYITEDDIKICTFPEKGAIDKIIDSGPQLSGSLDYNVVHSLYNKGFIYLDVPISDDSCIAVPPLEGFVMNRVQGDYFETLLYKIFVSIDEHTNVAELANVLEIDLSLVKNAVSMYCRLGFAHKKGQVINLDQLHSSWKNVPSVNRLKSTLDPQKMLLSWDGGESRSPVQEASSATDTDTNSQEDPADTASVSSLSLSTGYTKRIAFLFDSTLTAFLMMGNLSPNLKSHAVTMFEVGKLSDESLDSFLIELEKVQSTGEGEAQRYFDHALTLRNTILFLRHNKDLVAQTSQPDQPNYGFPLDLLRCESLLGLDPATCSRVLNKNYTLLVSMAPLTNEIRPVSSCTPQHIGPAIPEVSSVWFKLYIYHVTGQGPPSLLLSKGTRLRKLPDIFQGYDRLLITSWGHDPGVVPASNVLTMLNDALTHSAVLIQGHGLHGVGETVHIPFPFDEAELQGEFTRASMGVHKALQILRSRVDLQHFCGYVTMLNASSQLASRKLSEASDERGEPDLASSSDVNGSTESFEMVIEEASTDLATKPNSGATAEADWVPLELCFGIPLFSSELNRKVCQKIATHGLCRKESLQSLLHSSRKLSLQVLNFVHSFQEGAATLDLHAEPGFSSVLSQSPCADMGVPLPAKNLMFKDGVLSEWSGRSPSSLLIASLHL
UniProt Q3U7R1: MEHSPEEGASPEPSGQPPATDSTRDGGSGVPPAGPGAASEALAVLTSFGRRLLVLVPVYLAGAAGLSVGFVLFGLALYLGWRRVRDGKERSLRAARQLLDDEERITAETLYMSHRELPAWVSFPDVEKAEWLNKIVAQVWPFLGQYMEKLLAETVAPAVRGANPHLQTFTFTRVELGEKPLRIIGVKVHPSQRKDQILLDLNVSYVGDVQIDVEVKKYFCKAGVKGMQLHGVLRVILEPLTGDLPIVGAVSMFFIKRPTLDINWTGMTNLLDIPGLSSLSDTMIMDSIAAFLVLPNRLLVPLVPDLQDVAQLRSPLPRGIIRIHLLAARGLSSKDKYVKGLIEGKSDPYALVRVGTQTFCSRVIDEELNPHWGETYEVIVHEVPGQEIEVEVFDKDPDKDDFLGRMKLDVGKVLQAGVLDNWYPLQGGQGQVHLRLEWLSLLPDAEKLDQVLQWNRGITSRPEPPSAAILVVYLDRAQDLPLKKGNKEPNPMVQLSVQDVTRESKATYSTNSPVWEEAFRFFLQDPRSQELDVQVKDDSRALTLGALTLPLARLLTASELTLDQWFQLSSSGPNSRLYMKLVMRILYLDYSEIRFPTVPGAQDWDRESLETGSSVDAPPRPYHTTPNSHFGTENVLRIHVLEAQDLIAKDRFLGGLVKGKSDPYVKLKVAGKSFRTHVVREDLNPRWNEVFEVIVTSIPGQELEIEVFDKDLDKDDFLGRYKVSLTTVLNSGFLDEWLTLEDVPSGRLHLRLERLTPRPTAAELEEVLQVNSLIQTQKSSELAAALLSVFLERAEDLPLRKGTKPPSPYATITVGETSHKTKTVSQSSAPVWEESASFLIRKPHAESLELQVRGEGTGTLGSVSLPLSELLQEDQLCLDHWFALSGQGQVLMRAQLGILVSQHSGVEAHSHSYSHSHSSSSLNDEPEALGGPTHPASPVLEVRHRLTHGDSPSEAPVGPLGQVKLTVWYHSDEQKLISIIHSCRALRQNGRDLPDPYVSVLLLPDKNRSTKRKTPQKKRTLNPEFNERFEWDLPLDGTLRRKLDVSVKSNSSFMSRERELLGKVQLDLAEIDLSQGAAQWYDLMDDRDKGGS
UniProt Q4FZG9: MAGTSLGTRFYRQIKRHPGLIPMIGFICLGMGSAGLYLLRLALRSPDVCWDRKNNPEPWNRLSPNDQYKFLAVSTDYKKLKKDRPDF
UniProt Q4V9W2: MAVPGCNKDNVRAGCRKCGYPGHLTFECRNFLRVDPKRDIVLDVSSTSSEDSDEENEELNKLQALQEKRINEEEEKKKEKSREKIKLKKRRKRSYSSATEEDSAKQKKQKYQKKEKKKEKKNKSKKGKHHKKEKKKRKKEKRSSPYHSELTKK
UniProt Q3UQ28: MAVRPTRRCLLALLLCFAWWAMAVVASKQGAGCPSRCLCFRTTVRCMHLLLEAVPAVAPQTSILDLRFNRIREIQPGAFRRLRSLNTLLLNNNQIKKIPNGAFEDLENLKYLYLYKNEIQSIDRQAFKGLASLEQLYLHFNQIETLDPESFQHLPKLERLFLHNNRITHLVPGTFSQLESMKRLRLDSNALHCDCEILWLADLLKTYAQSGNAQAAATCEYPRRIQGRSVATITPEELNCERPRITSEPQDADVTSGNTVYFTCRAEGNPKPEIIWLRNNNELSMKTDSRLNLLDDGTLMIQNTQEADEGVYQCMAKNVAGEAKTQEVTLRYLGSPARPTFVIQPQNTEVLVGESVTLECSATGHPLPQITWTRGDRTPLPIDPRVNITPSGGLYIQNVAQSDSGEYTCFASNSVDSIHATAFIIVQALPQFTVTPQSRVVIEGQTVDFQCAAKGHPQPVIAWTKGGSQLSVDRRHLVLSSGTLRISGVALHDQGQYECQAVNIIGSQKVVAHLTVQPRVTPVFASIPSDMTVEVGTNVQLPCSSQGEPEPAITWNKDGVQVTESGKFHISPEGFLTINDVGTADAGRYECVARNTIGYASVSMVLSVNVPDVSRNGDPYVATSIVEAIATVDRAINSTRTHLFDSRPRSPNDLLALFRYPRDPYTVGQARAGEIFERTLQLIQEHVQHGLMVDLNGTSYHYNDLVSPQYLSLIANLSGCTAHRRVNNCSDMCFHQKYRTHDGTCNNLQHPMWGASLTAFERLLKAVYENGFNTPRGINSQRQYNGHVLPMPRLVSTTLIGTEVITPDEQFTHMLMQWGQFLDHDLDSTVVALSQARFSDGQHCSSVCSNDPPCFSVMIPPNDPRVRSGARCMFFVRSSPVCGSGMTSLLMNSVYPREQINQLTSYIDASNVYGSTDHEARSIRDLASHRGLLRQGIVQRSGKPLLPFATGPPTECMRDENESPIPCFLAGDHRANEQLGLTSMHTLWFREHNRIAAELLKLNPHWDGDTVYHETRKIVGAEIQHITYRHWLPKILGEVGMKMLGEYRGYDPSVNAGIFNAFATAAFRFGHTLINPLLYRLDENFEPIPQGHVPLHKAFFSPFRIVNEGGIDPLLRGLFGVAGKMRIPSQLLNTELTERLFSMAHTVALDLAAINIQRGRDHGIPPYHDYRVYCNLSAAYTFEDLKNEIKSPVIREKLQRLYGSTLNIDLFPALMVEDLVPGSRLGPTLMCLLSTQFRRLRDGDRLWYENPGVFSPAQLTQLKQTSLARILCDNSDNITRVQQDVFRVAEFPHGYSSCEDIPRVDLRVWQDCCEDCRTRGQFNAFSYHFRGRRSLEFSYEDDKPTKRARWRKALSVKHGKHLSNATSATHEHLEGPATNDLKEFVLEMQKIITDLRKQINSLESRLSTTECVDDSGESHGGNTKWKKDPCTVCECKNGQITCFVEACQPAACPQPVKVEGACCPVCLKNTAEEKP
UniProt Q3UHX9: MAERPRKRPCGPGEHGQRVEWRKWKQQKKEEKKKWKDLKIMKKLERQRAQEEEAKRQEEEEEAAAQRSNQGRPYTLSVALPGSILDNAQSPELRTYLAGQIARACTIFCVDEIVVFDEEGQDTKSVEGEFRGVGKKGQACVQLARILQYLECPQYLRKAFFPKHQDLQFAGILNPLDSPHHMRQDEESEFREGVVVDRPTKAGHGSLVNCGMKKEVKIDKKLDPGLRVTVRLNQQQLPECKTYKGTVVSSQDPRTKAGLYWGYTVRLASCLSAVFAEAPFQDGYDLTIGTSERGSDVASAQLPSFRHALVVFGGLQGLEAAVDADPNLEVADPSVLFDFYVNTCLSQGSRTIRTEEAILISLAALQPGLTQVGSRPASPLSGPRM
UniProt Q3UBX0: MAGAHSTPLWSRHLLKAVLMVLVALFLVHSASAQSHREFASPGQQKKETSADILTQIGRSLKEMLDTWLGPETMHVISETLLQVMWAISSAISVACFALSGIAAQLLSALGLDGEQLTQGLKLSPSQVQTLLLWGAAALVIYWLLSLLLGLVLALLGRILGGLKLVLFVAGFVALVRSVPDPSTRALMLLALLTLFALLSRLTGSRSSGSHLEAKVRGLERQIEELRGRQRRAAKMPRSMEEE
UniProt Q3UI43, whole entry: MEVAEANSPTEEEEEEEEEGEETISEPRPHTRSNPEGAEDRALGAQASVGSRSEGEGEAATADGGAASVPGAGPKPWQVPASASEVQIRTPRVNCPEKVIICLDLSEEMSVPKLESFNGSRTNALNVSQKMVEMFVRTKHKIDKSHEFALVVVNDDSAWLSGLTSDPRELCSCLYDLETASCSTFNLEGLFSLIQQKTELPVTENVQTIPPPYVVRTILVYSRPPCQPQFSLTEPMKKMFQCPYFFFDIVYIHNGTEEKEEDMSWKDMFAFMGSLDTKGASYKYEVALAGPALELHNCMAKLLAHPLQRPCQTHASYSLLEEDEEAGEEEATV
UniProt Q3UZ01: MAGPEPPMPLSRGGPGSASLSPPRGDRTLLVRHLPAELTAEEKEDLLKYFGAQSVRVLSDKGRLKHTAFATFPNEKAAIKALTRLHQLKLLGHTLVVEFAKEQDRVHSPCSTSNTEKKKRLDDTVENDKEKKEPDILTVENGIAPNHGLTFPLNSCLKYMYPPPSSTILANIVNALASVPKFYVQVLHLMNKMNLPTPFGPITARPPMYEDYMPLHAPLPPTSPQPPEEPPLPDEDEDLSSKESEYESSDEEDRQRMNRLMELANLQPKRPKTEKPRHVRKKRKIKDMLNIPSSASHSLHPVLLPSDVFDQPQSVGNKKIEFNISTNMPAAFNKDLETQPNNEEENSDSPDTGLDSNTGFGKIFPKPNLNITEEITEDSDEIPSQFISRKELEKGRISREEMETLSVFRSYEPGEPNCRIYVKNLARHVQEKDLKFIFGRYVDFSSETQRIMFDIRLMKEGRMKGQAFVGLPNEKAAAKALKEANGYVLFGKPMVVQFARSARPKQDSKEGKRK
UniProt Q3V3N7: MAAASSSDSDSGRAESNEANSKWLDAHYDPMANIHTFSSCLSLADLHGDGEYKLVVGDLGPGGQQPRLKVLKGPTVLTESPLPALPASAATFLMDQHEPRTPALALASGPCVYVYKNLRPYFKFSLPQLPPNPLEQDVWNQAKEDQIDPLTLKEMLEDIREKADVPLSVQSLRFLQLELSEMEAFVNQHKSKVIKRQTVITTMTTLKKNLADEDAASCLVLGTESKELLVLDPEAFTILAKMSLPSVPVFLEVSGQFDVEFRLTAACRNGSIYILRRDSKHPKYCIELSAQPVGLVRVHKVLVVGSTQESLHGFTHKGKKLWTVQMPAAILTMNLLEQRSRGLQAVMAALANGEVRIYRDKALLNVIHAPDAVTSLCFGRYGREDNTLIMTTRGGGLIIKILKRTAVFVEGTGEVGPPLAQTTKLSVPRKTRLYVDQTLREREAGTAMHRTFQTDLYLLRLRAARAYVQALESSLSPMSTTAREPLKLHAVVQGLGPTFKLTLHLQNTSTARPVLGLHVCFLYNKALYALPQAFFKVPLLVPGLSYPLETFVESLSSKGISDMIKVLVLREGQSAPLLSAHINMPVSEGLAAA
UniProt Q3V3Q7, whole entry: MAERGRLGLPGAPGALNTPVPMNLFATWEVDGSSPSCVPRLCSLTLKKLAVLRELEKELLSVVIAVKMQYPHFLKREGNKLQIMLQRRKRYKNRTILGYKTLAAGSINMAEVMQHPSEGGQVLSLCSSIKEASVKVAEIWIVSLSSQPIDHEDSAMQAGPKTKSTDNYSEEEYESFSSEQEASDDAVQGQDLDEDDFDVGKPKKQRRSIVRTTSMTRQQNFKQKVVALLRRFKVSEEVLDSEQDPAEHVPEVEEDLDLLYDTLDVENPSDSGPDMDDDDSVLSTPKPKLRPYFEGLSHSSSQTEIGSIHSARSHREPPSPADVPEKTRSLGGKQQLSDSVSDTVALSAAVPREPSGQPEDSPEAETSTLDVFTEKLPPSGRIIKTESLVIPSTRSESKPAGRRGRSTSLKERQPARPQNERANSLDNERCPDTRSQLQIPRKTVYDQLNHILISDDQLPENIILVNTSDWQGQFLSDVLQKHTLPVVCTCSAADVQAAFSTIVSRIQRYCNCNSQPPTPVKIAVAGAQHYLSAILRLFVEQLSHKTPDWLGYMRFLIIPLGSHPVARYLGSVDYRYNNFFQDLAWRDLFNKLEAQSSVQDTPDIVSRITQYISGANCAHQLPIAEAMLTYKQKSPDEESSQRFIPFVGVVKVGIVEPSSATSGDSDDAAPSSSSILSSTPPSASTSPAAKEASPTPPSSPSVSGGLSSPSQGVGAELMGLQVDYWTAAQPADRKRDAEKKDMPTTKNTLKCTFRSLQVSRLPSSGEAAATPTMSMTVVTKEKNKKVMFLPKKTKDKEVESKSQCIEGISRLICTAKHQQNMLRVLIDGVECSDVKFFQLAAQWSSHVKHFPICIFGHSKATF

Target | log2 fold change
UniProt Q3UVU3 (peptide sequence: EQGQTLSK, peptide start residue: 450) | 0.15
UniProt Q3UMR0 (peptide sequence: GLPERPVSR, peptide start residue: 1000) | 0.786
UniProt Q3UVG3 (peptide sequence: IATHGLCR, peptide start residue: 744) | -0.476
UniProt Q3ZK22 (peptide sequence: KDDFYHLSQEDR, peptide start residue: 558) | -0.251
UniProt Q3UGF1 (peptide sequence: IHLQYAK, peptide start residue: 897) | -0.401
UniProt Q3U7R1 (peptide sequence: GTKPPSPYATITVGETSHK, peptide start residue: 802) | 0.385
UniProt Q4FZG9 (peptide sequence: FLAVSTDYKK, peptide start residue: 70) | 0.413
UniProt Q3UDP0 (peptide sequence: TAHDSNILHIDKLPNR, peptide start residue: 320) | -0.179
UniProt Q3UDE2 (peptide sequence: VHCDVQQVLGHLTHPR, peptide start residue: 302) | -0.976
UniProt Q5BU09 (peptide sequence: DQAWVDAK, peptide start residue: 145) | 0.2
UniProt Q4V9W2 (peptide sequence: KCGYPGHLTFECR, peptide start residue: 17) | -0.349
UniProt Q3UPH7 (peptide sequence: VQQMVSMGIGNKPFLDIK, peptide start residue: 1381) | -0.32
UniProt Q3URQ0 (peptide sequence: LLLQHVPLR, peptide start residue: 865) | 0.593
UniProt Q3U9N9 (peptide sequence: MLENQSSLLSGSSGIFKK, peptide start residue: 489) | -0.13
UniProt Q3UIL6 (peptide sequence: AQRDPLEGR, peptide start residue: 346) | -0.53
UniProt Q3UQ28 (peptide sequence: AEGNPKPEIIWLR, peptide start residue: 266) | 0.164

Quoted from the listing:
Under log2 fold change, UniProt Q3URQ0 (peptide sequence: LLLQHVPLR, peptide start residue: 865) is listed with 0.593
Under log2 fold change, UniProt Q3UGF1 (peptide sequence: IHLQYAK, peptide start residue: 897) is listed with -0.401

(cont.)

Target | log2 fold change
UniProt Q52KI8 (peptide sequence: KVELSESEEDKGSK, peptide start residue: 457) | 0.213
UniProt Q4LDD4 (peptide sequence: TGPPYPQASLLAK, peptide start residue: 162) | 0.692
UniProt Q3UHX9 (peptide sequence: TYLAGQIAR, peptide start residue: 95) | -0.285
UniProt Q3UBX0 (peptide sequence: SSGSHLEAK, peptide start residue: 207) | 0.34
UniProt Q3UI43 (peptide sequence: LESFNGSR, peptide start residue: 114) | -0.151
UniProt Q3UZ01 (peptide sequence: LDDTVENDKEKK, peptide start residue: 121) | 0.605
UniProt Q58A65 (peptide sequence: AKNYADQISR, peptide start residue: 135) | 0.239
UniProt Q3UFB2 (peptide sequence: VENMQQNMIR, peptide start residue: 398) | 0.503
UniProt Q3UHX2 (peptide sequence: VTQLDLDGPKELSR, peptide start residue: 96) | -0.292
UniProt Q3V3N7 (peptide sequence: GGGLIIK, peptide start residue: 394) | 0.139
UniProt Q5DU09 (peptide sequence: ETLTCEKCPR, peptide start residue: 242) | -0.758
UniProt Q571H0 (peptide sequence: TKDLHVLMDHLPNTLR, peptide start residue: 1332) | -0.433
UniProt Q3UH68 (peptide sequence: FTISEAVLER, peptide start residue: 450) | -0.327
UniProt Q3V3Q7 (peptide sequence: IAVAGAQHYLSAILR, peptide start residue: 522) | 0.33
UniProt Q505D1 (peptide sequence: DGKTPLHMTALHGR, peptide start residue: 305) | -0.662
